PubChem BioAssay AID504786 | Drosophila RNAi Screening Center | 2011
The screen tested about 21,000 reagents; below is an unselected part of those that have a named target and a result. 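Primary screen; positive scores mean lost reporter signal, so the sign may be inverted from the usual convention.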 A plus sign joins genes that one reagent is predicted to hit. Further read-outs or replicates are left out here.

Assay: 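Knock-downs reducing HIF reporter induction by the iron chelator DFO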 (primary screen)
Cell system: Drosophila S2 cells with a stable HIF luciferase reporter
Knock-down reagent: long dsRNA against Drosophila genes, about 0.2 µg dsRNA per well of a 384-well plate
Timing: three days of knock-down, then 20 h of DFO before reading
Conditions: desferrioxamine (DFO) at 100 µM, an iron chelator that mimics hypoxia, for 20 h
Detection: 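HIF reporter luminescence in cells given 100 µM DFO for 20 h, using the mouse ldh-a hypoxia-response element, scored as per-plate z-scores; higher means greater loss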
Reading the numbers: z-score: higher = stronger loss of HIF reporter signal

no.	gene	DRSC id	z-score, replicate 1
1	CG3557	DRSC00614	-0.4
2	CG44001 + CG33995	DRSC00853	-0.5
3	CG44001 + CG33995	DRSC02898	-0.1
4	CG3397	DRSC15487	-0.4
5	dila	DRSC06607	-0.2
6	CR31292	DRSC13120	0.2
7	St4	DRSC07008	-0.3
8	CG14879	DRSC15003	-0.3
9	CG14488	DRSC06460	-0.2
10	BRWD3	DRSC15369	1.9
11	BRWD3	DRSC16032	1.8
12	Bmcp	DRSC10808	-0.3
13	Mf	DRSC16120	-0.3
14	CG15211	DRSC19657	-0.3
15	CG18745	DRSC15382	-0.4
16	Letm1	DRSC04476	1.9
17	jeb	DRSC06305	-0.3
18	jeb	DRSC06307	-0.3
19	Gmppa	DRSC07108	-0.2
20	Fdh	DRSC16670	-0.3
21	CG7953	DRSC01902	-0.3
22	CG6484	DRSC06991	-0.2
23	CG12159	DRSC06114	-0.2
24	CG13324	DRSC06361	0.5
25	CG12164	DRSC06115	-0.3
26	Meics	DRSC11413	-0.4
27	CG14292	DRSC14772	-0.3
28	CG31693	DRSC03674	-0.2
29	CG12025	DRSC08230	-0.3
30	spag	DRSC04717	-0.2
31	CG15572	DRSC18060	-0.3
32	CG8526	DRSC16438	-0.4
33	Gr21a	DRSC00366	0.1
34	CG10903	DRSC14281	0.4
35	ppl	DRSC11899	-0.1
36	CG18301	DRSC02662	-0.3
37	HDAC6	DRSC20252	-0.3
38	CG14495	DRSC06466	-0.3
39	COX6B	DRSC19590	0.9
40	Taf11	DRSC03448	0.5
41	CG9294	DRSC04537	-0.2
42	Muc4B	DRSC18062	-0.5
43	Muc4B	DRSC18063	-0.3
44	klg	DRSC13591	0.1
45	klg	DRSC16978	-0.2
46	CG6023	DRSC19970	-0.4
47	CG18088	DRSC02654	0.2
48	lectin-33A	DRSC02529	-0.2
49	CG33758	DRSC05158	-0.1
50	gnu	DRSC10497	-0.3
51	Ada1-1 + Ada1-2	DRSC01220	0.3
52	Ada1-1 + Ada1-2	DRSC01222	0.2
53	CG4641 (retired record)	DRSC10439	-0.1
54	Sh3beta	DRSC11001	-0.2
55	CG31104	DRSC14658	-0.4
56	CG11997	DRSC14464	-0.1
57	CG14354	DRSC14817	-0.3
58	PIG-U	DRSC02193	-0.2
59	CG15629	DRSC00464	-0.3
60	CG17167	DRSC20902	0.2
61	CG17167	DRSC20903	0
62	CG1142	DRSC12531	-0.2
63	Kpc2	DRSC07635	-0.2
64	CG30414	DRSC04372	-0.4
65	BckdhB	DRSC21183	-0.2
66	CG42329	DRSC00373	-0.3
67	CG42329	DRSC00682	-0.3
68	CG3123	DRSC00570	0.2
69	CG31482	DRSC12582	-0.3

Continued (13 carried over from the part before).
no.	gene	DRSC id	z-score, replicate 1
57	CG14354	DRSC14817	-0.3
58	PIG-U	DRSC02193	-0.2
59	CG15629	DRSC00464	-0.3
60	CG17167	DRSC20902	0.2
61	CG17167	DRSC20903	0
62	CG1142	DRSC12531	-0.2
63	Kpc2	DRSC07635	-0.2
64	CG30414	DRSC04372	-0.4
65	BckdhB	DRSC21183	-0.2
66	CG42329	DRSC00373	-0.3
67	CG42329	DRSC00682	-0.3
68	CG3123	DRSC00570	0.2
69	CG31482	DRSC12582	-0.3
70	Vinc	DRSC18728	-0.2
71	CG41520	DRSC21102	-0.2
72	CG41520	DRSC21103	-0.1
73	CG16704	DRSC00475	-0.3
74	CG13603	DRSC14606	-0.1
75	CG9308	DRSC04539	-0.1
76	nito	DRSC05943	-0.5
77	PAPLA1	DRSC03095	-0.3
78	PAPLA1	DRSC03096	-0.4
79	MetRS-m	DRSC16443	-0.3
80	MetRS-m	DRSC16515	-0.4
81	m	DRSC20181	1.6
82	Lmpt	DRSC09450	-0.5
83	Lmpt	DRSC09864	-0.2
84	Lmpt	DRSC09865	-0.3
85	Lmpt	DRSC09866	-0.3
86	Lmpt	DRSC11107	-0.3
87	babos	DRSC03923	0.1
88	babos	DRSC04397	-0.1
89	sinah	DRSC09910	-0.4
90	CG14852	DRSC14976	0.3
91	ct	DRSC18757	2.1
92	CG13063	DRSC09946	0
93	CG1246	DRSC08275	-0.1
94	HLH4C	DRSC18670	-0.1
95	Gyc88E	DRSC15547	-0.2
96	sncRNA:430e + His2A:CG33859 + His2A:CG33817 + 37 more	DRSC21264	1.6
97	Kdsr	DRSC14245	0.2
98	mthl15	DRSC01120	-0.2
99	Sec16	DRSC19788	-0.4
100	Sec16	DRSC19858	-0.2
101	ValRS	DRSC06864	0.4
102	CG11409	DRSC18579	0.1
103	CG14431	DRSC17925	-0.2
104	CG42813 + CG42814	DRSC15939	-0.2
105	CG42813 + CG42814	DRSC15940	-0.1
106	CG11768	DRSC14377	0.4
